PubChem BioAssay AID686937 – Drosophila RNAi Screening Center – 2013
Aim: 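Genes in the fly needed for secretion of protein constitutively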 (primary screen). Cells: Drosophila S2 cells expressing secreted horseradish peroxidase. Reagent: long dsRNA against Drosophila genes. Timing: about 5.5 days (5 days dsRNA, then 12 h reporter induction). Treatment: reporter expression induced after 5 days of dsRNA, read 12 h later; inducer not stated. Measurement: 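Chemiluminescent measurement of peroxidase in the medium 12 h after reporter induction, following 5 days of dsRNA, given as a z-score per plate; higher means more secretion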. Direction: z-score: higher = more reporter secreted into medium.
The deposit covers about 23,000 reagents; this is a random part of those that have a named target and a result. 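Reduced-secretion tags in replicate 1 do not always agree with the z-scores; no criterion for assigning the tags was given.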 The numbers tell different reagents against one gene apart. A plus sign joins genes that one reagent is predicted to hit. The record does not give: the amount of reagent.

| Target gene | dsRNA no. | z-score, replicate 1 | z-score, replicate 2 | z-score, replicate 3 | z-score, replicate 4 | phenotype, replicate 1 |
| --- | --- | --- | --- | --- | --- | --- |
| CG15196 | 1 | 0.32 | 0.16 | – | – | – |
| Sumo | 1 | -3.37 | -3.41 | – | – | reduced secretion |
| fus | 1 | 0.24 | 0.49 | – | – | – |
| fus | 2 | 0.62 | 0.38 | – | – | – |
| CG43244 | 1 | 0.55 | 0.27 | – | – | – |
| wcd | 1 | 0.09 | 0.03 | – | – | – |
| CG13461 | 1 | -0.27 | -0.08 | – | – | – |
| Raf | 1 | -0.69 | -0.82 | – | – | – |
| Pura | 1 | 0.57 | 0.58 | – | – | – |
| Pura | 2 | 0.13 | 0.27 | – | – | – |
| Pura | 3 | 0.33 | 0.29 | – | – | – |
| Pura | 4 | 0.07 | 0.29 | – | – | – |
| Pura | 5 | 0.21 | 0.21 | – | – | – |
| msopa | 1 | -0.94 | -1.17 | – | – | – |
| Pex23 | 1 | 0.14 | 0.21 | – | – | – |
| Pex23 | 2 | 0.38 | 0.2 | – | – | – |
| CG10761 | 1 | 0.32 | 0.65 | – | – | – |
| CG1971 | 1 | -0.09 | 0.08 | – | – | – |
| Hexo2 | 1 | 0.38 | 0.45 | – | – | – |
| emei | 1 | 0.28 | 0.65 | 0.54 | 0.25 | – |
| emei | 2 | -1.54 | -0.71 | – | – | reduced secretion |
| mtg | 1 | 0.24 | 0.47 | – | – | – |
| Gr10a | 1 | 0.74 | 0.52 | – | – | – |
| Gr10a | 2 | 0.12 | -0.7 | – | – | – |
| eIF4E4 | 1 | 0.6 | -0.15 | – | – | – |
| Exd2 | 1 | 0.11 | 0.46 | – | – | – |
| CG43092 | 1 | 0.39 | 0.38 | – | – | – |
| CG18278 + CG30059 | 1 | 0.55 | 0.26 | – | – | – |
| ppk30 | 1 | 0.26 | 0.18 | – | – | – |
| SkpD | 1 | 0.5 | 0.09 | – | – | – |
| CG30369 | 1 | 0.03 | -0.13 | – | – | – |
| CG15930 | 1 | 0.41 | -0.47 | – | – | – |
| Cadps | 1 | 0.56 | 0.05 | – | – | – |
| Cadps | 2 | -0.43 | -0.15 | – | – | – |
| Tango5 | 1 | -6.05 | -0.21 | – | – | reduced secretion |
| laf | 1 | -0.05 | 0.43 | – | – | – |
| Drp1 | 1 | 0.26 | 0.3 | – | – | – |
| CG30269 | 1 | 0.29 | 0.45 | – | – | – |
| CG8508 | 1 | 0.28 | 0.27 | – | – | – |
| Rab1 | 1 | -6.03 | -6.85 | – | – | reduced secretion |
| IntS1 | 1 | 1.04 | 0.73 | – | – | – |
| CG6337 | 1 | 0.37 | 0.37 | – | – | – |
| CG6337 | 2 | -0.46 | 0.39 | – | – | – |
| CG42594 | 1 | -2.67 | -2.9 | – | – | reduced secretion |
| CG42594 | 2 | 0.29 | 0.23 | – | – | – |
| zetaCOP | 1 | -7.31 | -7.67 | – | – | reduced secretion |
| Tk | 1 | 0.61 | -0.09 | 0.15 | -0.05 | – |
| Tk | 2 | 0.51 | 0.16 | – | – | – |
| Eaat2 | 1 | 0.36 | 0.18 | – | – | – |
| Eaat2 | 2 | 0.28 | 0.37 | – | – | – |
| THG | 1 | -0.08 | 0.05 | – | – | – |
| CG3277 | 1 | 0.12 | 0.31 | – | – | – |
| CG8738 | 1 | 0.28 | 0.33 | – | – | – |
| Vha13 | 1 | -0.05 | 0.09 | – | – | – |
| Spec2 (retired record) | 1 | 0.24 | 0.18 | – | – | – |
| Spec2 (retired record) | 2 | -0.17 | -0.25 | – | – | – |
| CG4836 | 1 | 0.26 | 0.37 | – | – | – |
| CG4836 | 2 | 0.02 | 0.26 | – | – | – |
| su(w[a]) | 1 | 0.15 | 0.12 | – | – | – |
| trsn | 1 | 0.53 | 0.57 | – | – | – |
| Cdc45 | 1 | 0 | 0 | – | – | – |
| Cdc45 | 2 | 0.04 | 0.26 | – | – | – |
| Abi | 1 | 0.06 | -0.24 | – | – | – |
| CG8128 | 1 | 0.48 | 0.56 | – | – | – |
| Mcm7 | 1 | 0.09 | -0.13 | – | – | – |
| CG44000 + CG33995 + CG44001 | 1 | 0.5 | -0.33 | – | – | – |
| CG44000 + CG33995 + CG44001 | 2 | -0.1 | 0.27 | – | – | – |
| RpL36 | 1 | -2.22 | -3.77 | – | – | reduced secretion |
| NetA | 1 | 0.02 | 0.33 | – | – | – |
| LUBEL | 1 | 0.25 | 0.29 | – | – | – |
| nerfin-1 | 1 | -9.9 | 0.2 | – | – | reduced secretion |
| CG18764 | 1 | 0.28 | 0.31 | – | – | – |
| Pcyt1 | 1 | 0.46 | 0.46 | – | – | – |
| Tsc1 | 1 | 0.63 | 0.43 | – | – | – |
| Fer2LCH | 1 | 0.39 | 0.24 | – | – | – |
| Galphai | 1 | -0.02 | 0.22 | – | – | – |
| Egfrap | 1 | 0.24 | 0.3 | – | – | – |
| Egfrap | 2 | 0.03 | 0.42 | – | – | – |
| CG3349 | 1 | 0.33 | 0.41 | – | – | – |
| CG13813 | 1 | 0.46 | 0.56 | – | – | – |
| CG4281 | 1 | 0.73 | 0.68 | – | – | – |
| TpnC73F | 1 | 0.3 | -0.38 | – | – | – |

Only “z-score, replicate 2”, for 8 of the entries above:
CG15930: -0.47
Cadps #1: 0.05
Cadps #2: -0.15
Tango5: -0.21
laf: 0.43
Drp1: 0.3
CG30269: 0.45
CG8508: 0.27
